From PubChem BioAssay AID493014 (National Center for Advancing Translational Sciences (NCATS), 2011)
About 170 (0.05%) of roughly 340,000 compounds were called active. Inconclusive results, whose numbers are uncertain, are shown with a selection of clear calls. Calls follow the shape of the dose curve; as a rule, active = well fitted inhibition curve with a large enough effect in the signal ratio, with a control signal flat (not every such curve was filed as active); inconclusive = small, poorly fitted or top-dose-only effect, or effect the other way, or a change in a side signal; inactive = flat fitted curve, though single readings scatter; the % refers to the signal ratio. Potencies beside an inconclusive call are fits to weak or partial responses and may not hold up.

Assay: qHTS Assay to Find Inhibitors of Chronic Active B-Cell Receptor Signaling;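 as to activity change, negative = inhibition: plate controls were basal doxycycline-induced cells for no effect and cells given 10 µM MG132 for full effect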
Settings: ABC-DLBCL IkBa-CBG/CBR reporter, luminescence ratio (green luciferase fused to IkBa over red control in TMD8 lymphoma cells), 4 h; activity change, negative = inhibition: at 46.1 µM (top of the series)
Outline: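 Concentration-response series (up to 46 uM) were applied to TMD8 dual-reporter cells for 4 h at 37C with doxycycline. Green/red ratio, after filter-overlap correction, defined %Activity; red signal alone was normalised to basal cells and zero luminescence.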
Potency is read from the fitted curve at half-maximal effect.

Row | SMILES | activity change, negative = inhibition | Potency
1 | Cc1ccc(CNC(=O)C(=O)NCC(c2ccco2)N2CCOCC2)cc1 (centres undefined) | inconclusive: -0.544% | –
2 | CC(C)CNC(=O)c1coc(=O)c(Br)c1 | – | inconclusive: 29.1 µM [falling, single point]
3 | COCc1nc(-c2ccc(-c3ccc(OC)cc3)nc2OC)no1 | inconclusive: -1.52% | –
4 | CCCc1cc(-c2[nH]ncc2-c2ccc(C(=O)OCC)o2)c(O)cc1O | – | inconclusive: 10 µM [falling, partial curve]
5 | Cc1ccc(NC(=O)COC(=O)/C(=C/c2cccs2)c2cccs2)cc1S(=O)(=O)N(C)C | inactive | –
6 | CCc1cc(OCCCSc2nc(C)cc(=O)[nH]2)ccc1Cl | – | inconclusive: 0.366 µM [rising, full curve, poor fit]
7 | COc1ccc(Nc2cc(Cl)nc(N)n2)cc1 | – | inconclusive: 12.6 µM [falling, single point]
8 | CCc1ccc(NCc2cc3c(C)nn(-c4ccccc4)c3[nH]c2=O)cc1 | – | inconclusive: 10.3 µM [falling, partial curve, poor fit]
9 | CCOC(=O)c1cccc(COC(=O)c2cccc(-c3nnc(-c4ccccc4)o3)c2)c1 | – | inconclusive: 18.4 µM [falling, single point]
10 | Cc1ccc(C(=O)NNC(=O)c2ccco2)cc1 | inactive | –
11 | COc1cc(OC)c(/C=N/NC(=O)c2ccc(Cn3nc([N+](=O)[O-])cc3C)cc2)c(OC)c1 | inactive | –
12 | O=C(NCCC1=CCCCC1)c1ccc2c(c1)N(Cc1cccc(Cl)c1)C(=O)c1ccccc1S2=O (centres undefined) | – | inconclusive: 10 µM [rising, partial curve, poor fit]
13 | CC1(C)Cc2c(sc3c2c(=N)n(Cc2ccco2)c(=O)n3CC(=O)Nc2ccccc2)CO1 | – | inconclusive: 5.17 µM [falling, single point]
14 | OCCSc1nc2ccccc2n1CCOc1ccccc1 | inconclusive: 9.33% | –
15 | CC1CCCN(C(=O)CSc2nnc3n(C4CCCC4)c(=O)c4ccccc4n23)C1 (centres undefined) | inactive | –
16 | COCCn1c(SCc2c(F)cccc2Cl)nc2c1c(=O)[nH]c(=O)n2C | inconclusive: 6.02% | –
17 | O=C(O)c1ccc(N=Cc2nc(-c3ccco3)oc2O)cc1 | – | inconclusive: 3.16 µM [falling, partial curve, poor fit]
18 | CCCCn1c(=N)n(CC(O)COc2cccc(C)c2)c2ccccc21 (centres undefined) | inconclusive: -1.27% | –
19 | CC(C)CC1(C)NC(=O)N(CC(=O)NC(=O)Nc2ccc3c(c2)OCCO3)C1=O (centres undefined) | inconclusive: -4.22% | –
20 | CCOC(=O)Nc1ccc2c(c1)N(CCCN(C)C)c1ccccc1CC2 | – | inconclusive: 15.8 µM [falling, single point]
21 | O=C(N/N=C(/CC(=O)c1cccs1)C(F)(F)F)c1ccc(O)cc1 | – | inconclusive: 16.4 µM [falling, partial curve]
22 | COc1ccccc1-n1cnnc1SC1CCOC1=O (centres undefined) | – | inconclusive: 3.98 µM [falling, partial curve, poor fit]
23 | CC(=O)c1c(C)[nH]c(C(=O)Nc2ccc(C)c(S(=O)(=O)Nc3ccc(C)cc3C)c2)c1C | inactive | –
24 | Cc1ccc(S(=O)(=O)NC(CC(C)C)C(=O)Nc2nccs2)cc1 (centres undefined) | inconclusive: 2.91% | –
25 | Nc1c(C(=O)O)ccc2c1C(=O)c1ccccc1C2=O | – | inconclusive: 14.1 µM [rising, partial curve, poor fit]

Nos. 20–22 of the list above:
Row | SMILES | activity change, negative = inhibition | Potency
20 | CCOC(=O)Nc1ccc2c(c1)N(CCCN(C)C)c1ccccc1CC2 | – | inconclusive: 15.8 µM [falling, single point]
21 | O=C(N/N=C(/CC(=O)c1cccs1)C(F)(F)F)c1ccc(O)cc1 | – | inconclusive: 16.4 µM [falling, partial curve]
22 | COc1ccccc1-n1cnnc1SC1CCOC1=O (centres undefined) | – | inconclusive: 3.98 µM [falling, partial curve, poor fit]

Later entries:

Row | SMILES | activity change, negative = inhibition | Potency
26 | CC1CCc2nc3sc4c(c3c(N)c2C1)CCCC4 (centres undefined) | inconclusive: 9.72% | –
27 | COc1ccc(-c2nn(-c3ccccc3)cc2C2CC(c3cccs3)=NN2C(=O)CCCC(=O)O)cc1 (centres undefined) | inactive | –
28 | CC1CC(=O)c2cnc(NCC3CCCO3)nc2C1 (centres undefined) | inconclusive: 18.5% | –
29 | Cc1cccc2cc(COC(=O)c3cccs3)c(=O)[nH]c12 | inconclusive: 7.37% | –
30 | CCOc1ccc(C2C3=C(CCCC3=O)Nc3nc(C(F)(F)F)nn32)cc1OC (centres undefined) | inconclusive: -22.1% | –
31 | Oc1ccc(Cl)cc1Cc1cc(Cl)ccc1O | inconclusive: 4.7% | –
32 | O=C(NNC(=S)Nc1ccc(Br)cc1)c1ccccc1 | – | inconclusive: 14.1 µM [falling, partial curve]
33 | CSCCC(NC(=O)c1ccccc1)C(=O)OCC(=O)c1ccc[nH]1 (centres undefined) | inconclusive: 0.338% | –
34 | O=c1cc(CNc2cc(C(F)(F)F)cc(C(F)(F)F)c2)nc2sccn12 | inactive | –
35 | O=C(O)c1cccc(C(=O)Nc2cccc(NC(=O)C3CCCO3)c2)c1 (centres undefined) | – | inconclusive: 18.4 µM [falling, partial curve]
36 | C#CC[N+](C)(C)CC#Cc1ccccc1 | inconclusive: 0.0413% | –
37 | CCOC(=O)C1CCCN(Cc2ccc3c(c2)OCO3)C1 (centres undefined) | inconclusive: 9.17% | –
38 | COc1cc(C(=O)NCC(=O)OCc2cc(=O)oc3c(C)c(C)ccc23)cc(OC)c1OC | inconclusive: -0.958% | –
39 | Cc1cc(N2CCOCC2)ccc1/C=C\[N+](=O)[O-] | inconclusive: 5.22% | –
40 | CCN(CC)CCOc1ccc2c(c1)C(=NO)c1cc(OCCN(CC)CC)ccc1-2 | inconclusive: -8.85% | –
41 | Cn1ccnc1SCC(=O)c1c[nH]c2ccccc12 | – | inconclusive: 22.4 µM [falling, partial curve]
42 | COc1ccc(NC(=O)COc2cccc3c2CCN(C)C3=O)c(OC)c1 | inconclusive: 8.67% | –
43 | Cc1ccc(NC(=O)c2cccnc2)c([N+](=O)[O-])c1 | inactive | –
44 | CCc1ccc(NC(=O)CSc2nc(=O)n(Cc3ccccn3)c3c2CCC3)cc1 | – | inconclusive: 1.58 µM [falling, partial curve, poor fit]
45 | COc1ccc(C2=NN(C(C#N)c3ccc(OC)c(OC)c3)C(c3ccccc3)C2)cc1 (centres undefined) | – | inconclusive: 0.231 µM [rising, full curve]
46 | CC(/C=C/c1ccc2c(c1)OCO2)=N\NC(=O)c1cccc([N+](=O)[O-])c1 | inactive | –
47 | CSc1ncccc1C(=O)OCC(=O)c1[nH]c(C)c(C(C)=O)c1C | inactive | –
48 | CCS(=O)(=O)n1nc(-c2ccco2)nc1N | inconclusive: 8.68% | –
49 | C=CCOc1ccc(C2c3c(oc4ccccc4c3=O)C(=O)N2CCCN2CCOCC2)cc1 (centres undefined) | inconclusive: 6.63% | –
